Reference: PMC7293217, “TECPR1 promotes aggrephagy by direct recruitment of LC3C autophagosomes to lysosomes” (Nature Communications, 2020)
Where a chain is given by its changes, count along the chain named. These are yes or no findings as the source states them, for the method shown. Binding seen in cells or lysates may run through a third protein. Some entries that bind do so weakly or less than the wild type. For some assays here: Where a sequence is shown, tags or fusion partners need not be part of it.

By UniProt entry, the sequences of proteins in these tests, tags left out. Residues count along the entry.
UniProt Q9BXW4, residues 1-126: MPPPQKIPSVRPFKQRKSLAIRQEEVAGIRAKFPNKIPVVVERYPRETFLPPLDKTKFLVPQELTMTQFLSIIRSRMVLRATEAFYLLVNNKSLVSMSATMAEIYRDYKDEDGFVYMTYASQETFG

How the values were obtained:
[1] = target: T1, TECPR1^W175A/I178A (co-immunoprecipitation) (human) (UniProt Q7Z6L1); test: co-IP; HeLa cells expressing GFP-TECPR1 or GFP transfected with HA-tagged hATG8s; lysate on GFP Trap magnetic beads overnight at 4 °C; wash 10 mM Tris-HCl pH 7.5, 150 mM NaCl, 0.5 mM EDTA; immunoblot
T1 sequence: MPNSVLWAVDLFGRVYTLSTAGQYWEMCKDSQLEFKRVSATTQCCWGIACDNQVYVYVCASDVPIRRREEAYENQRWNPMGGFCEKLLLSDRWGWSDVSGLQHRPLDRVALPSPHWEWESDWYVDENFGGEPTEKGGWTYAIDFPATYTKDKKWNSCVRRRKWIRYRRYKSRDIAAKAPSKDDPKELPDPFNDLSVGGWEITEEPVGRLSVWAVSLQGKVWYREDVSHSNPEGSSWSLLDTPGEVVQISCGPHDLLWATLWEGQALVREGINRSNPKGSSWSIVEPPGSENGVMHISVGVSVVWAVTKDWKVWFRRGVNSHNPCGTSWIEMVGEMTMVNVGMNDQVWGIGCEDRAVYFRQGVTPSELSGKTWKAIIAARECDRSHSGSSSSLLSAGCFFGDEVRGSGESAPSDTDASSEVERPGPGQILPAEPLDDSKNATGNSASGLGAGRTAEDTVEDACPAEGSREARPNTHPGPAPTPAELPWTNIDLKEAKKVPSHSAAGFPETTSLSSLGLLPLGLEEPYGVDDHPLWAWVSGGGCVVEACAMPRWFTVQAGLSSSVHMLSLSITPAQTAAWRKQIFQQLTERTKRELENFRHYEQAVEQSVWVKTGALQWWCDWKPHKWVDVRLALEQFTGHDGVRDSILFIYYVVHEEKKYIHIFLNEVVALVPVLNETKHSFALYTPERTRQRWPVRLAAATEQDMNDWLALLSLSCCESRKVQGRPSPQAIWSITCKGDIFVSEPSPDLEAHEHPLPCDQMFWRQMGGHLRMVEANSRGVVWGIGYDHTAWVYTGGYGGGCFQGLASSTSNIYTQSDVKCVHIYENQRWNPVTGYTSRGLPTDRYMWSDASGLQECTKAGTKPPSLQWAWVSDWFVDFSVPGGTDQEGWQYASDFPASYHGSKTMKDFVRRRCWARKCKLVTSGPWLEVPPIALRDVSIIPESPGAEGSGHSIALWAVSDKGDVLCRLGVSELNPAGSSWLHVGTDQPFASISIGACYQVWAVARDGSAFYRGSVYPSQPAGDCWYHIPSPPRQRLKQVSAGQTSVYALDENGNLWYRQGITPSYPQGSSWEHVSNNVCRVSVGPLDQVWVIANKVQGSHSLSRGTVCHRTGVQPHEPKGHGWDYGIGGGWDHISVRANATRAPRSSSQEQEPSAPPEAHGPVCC

GFP-TECPR1 (human) = target: T2, GFP-TECPR1 (human) (UniProt Q7Z6L1); test: as above
T2 sequence: T1 sequence with A175W, A178I

Substance: HA-LC3C (from UniProt Q9BXW4 1-126)
- binding [1]: binds
- binding (GFP-TECPR1 (human)): binds
